Results: the supplement of paper PMC10849652
The other results are listed elsewhere or left out.

The chains behind the UniProt entries cited, without tags or fusion partners. Where a name states a change or a piece, a line headed by the entry shows the natural chain unless it says otherwise.
UniProt Q3MIT2: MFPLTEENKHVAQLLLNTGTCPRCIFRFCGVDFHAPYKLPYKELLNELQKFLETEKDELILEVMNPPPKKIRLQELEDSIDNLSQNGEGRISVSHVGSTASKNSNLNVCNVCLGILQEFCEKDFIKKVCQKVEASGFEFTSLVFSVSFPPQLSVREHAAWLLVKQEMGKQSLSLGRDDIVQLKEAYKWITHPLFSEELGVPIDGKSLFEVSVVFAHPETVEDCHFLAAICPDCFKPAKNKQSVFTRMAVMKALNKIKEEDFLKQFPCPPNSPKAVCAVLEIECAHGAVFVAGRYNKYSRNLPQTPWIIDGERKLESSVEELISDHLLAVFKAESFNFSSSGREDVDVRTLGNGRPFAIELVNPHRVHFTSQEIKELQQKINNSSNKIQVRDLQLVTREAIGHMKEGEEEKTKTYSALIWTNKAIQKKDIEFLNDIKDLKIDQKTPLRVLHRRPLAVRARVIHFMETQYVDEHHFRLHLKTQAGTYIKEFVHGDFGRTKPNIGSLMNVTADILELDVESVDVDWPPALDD
UniProt P62191: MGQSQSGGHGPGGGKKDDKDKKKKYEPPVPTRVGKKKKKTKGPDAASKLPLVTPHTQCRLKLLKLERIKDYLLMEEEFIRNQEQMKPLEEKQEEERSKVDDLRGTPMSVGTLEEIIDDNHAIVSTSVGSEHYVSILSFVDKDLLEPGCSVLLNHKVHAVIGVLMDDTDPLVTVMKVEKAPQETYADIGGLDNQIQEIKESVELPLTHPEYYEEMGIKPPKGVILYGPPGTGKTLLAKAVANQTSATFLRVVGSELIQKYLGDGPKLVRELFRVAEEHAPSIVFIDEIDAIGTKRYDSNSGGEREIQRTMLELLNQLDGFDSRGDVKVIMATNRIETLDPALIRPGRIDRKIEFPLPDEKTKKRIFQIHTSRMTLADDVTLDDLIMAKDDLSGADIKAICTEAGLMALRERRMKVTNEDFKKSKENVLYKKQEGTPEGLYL
UniProt Q8WUK0: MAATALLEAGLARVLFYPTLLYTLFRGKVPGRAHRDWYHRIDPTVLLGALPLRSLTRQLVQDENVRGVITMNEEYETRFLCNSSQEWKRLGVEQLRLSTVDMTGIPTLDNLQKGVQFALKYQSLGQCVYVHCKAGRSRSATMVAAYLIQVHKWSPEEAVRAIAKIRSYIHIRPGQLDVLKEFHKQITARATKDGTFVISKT
UniProt P20962: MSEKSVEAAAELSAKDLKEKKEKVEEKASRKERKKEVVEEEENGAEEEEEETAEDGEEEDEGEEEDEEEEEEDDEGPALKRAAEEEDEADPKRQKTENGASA
UniProt Q8TB72: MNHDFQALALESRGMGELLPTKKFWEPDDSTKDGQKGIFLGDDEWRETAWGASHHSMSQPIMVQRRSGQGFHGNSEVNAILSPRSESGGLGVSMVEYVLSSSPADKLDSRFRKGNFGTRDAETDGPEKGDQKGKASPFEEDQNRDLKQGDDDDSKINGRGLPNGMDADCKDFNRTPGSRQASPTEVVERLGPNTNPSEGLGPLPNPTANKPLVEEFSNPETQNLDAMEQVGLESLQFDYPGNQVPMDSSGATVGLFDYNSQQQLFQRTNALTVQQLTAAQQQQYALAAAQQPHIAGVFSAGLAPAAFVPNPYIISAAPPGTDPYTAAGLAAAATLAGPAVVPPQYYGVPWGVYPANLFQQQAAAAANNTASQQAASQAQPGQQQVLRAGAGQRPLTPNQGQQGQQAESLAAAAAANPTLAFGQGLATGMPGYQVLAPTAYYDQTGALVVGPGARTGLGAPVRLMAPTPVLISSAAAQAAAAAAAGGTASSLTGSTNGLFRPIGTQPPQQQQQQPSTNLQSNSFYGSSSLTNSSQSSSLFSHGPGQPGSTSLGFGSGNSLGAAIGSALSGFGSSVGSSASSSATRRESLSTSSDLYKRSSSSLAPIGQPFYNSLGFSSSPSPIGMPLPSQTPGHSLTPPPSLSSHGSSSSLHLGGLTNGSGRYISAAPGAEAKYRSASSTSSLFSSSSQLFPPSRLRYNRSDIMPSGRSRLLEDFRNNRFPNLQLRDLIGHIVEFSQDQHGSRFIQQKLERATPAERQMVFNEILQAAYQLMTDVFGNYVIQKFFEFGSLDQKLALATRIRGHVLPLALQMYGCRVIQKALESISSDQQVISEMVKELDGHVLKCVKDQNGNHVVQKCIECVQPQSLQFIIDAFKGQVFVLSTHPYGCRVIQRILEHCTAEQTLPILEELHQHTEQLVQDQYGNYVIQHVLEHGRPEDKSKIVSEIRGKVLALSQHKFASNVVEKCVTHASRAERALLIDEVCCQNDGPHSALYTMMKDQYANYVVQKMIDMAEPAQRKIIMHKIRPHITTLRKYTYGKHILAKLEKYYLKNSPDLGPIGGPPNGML
UniProt Q15269: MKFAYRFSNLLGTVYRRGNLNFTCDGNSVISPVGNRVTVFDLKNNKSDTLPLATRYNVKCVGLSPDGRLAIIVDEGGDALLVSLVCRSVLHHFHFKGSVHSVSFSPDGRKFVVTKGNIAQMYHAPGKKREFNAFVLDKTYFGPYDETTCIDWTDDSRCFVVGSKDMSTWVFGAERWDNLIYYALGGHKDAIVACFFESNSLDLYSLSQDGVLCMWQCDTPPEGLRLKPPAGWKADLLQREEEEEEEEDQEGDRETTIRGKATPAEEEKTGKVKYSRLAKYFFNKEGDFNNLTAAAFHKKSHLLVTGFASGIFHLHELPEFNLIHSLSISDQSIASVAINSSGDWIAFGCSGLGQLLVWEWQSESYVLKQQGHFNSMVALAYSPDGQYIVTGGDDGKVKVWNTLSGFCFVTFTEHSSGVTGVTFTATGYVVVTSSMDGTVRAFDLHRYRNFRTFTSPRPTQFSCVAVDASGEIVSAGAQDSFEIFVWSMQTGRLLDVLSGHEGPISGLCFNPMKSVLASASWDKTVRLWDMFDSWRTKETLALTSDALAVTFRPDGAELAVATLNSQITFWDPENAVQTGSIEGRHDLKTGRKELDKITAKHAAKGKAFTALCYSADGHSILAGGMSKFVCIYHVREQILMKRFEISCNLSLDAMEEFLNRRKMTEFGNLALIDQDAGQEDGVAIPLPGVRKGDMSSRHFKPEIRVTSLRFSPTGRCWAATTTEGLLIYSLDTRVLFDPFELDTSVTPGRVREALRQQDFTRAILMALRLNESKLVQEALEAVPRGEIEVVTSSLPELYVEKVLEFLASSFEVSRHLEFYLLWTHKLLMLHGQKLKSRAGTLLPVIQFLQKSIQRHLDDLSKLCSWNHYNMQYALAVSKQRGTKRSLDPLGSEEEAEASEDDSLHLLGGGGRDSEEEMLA
UniProt Q96BW5: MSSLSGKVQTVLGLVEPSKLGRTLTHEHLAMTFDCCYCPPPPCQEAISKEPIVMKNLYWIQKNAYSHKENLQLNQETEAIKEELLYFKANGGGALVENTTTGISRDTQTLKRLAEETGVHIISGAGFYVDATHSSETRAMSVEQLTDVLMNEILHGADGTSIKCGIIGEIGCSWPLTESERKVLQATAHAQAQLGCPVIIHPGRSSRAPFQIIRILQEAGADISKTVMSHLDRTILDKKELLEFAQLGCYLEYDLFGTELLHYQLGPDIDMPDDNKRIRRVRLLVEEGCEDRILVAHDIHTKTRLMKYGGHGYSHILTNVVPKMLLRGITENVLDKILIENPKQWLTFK
UniProt Q9UNM6: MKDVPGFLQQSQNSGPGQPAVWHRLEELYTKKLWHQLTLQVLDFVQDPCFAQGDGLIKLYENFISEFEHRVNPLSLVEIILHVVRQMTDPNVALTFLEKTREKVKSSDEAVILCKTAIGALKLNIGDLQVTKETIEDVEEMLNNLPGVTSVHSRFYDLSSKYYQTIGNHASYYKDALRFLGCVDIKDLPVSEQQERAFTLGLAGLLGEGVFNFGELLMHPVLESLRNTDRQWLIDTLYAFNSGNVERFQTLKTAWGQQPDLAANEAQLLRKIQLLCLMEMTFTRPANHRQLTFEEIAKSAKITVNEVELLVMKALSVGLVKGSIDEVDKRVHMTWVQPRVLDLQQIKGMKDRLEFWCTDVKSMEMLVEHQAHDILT
UniProt Q9H974: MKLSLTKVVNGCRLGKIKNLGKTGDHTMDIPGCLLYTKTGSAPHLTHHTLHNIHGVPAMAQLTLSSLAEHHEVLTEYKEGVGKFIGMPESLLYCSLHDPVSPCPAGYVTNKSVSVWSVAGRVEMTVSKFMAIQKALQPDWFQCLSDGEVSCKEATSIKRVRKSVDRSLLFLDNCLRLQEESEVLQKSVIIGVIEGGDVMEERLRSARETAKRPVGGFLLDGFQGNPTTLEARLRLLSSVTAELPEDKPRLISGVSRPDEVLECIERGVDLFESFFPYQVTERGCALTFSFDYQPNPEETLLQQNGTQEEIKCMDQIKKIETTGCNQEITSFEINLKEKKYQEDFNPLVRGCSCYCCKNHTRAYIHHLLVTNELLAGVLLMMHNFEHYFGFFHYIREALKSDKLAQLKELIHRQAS
UniProt P62195, whole entry, looked up: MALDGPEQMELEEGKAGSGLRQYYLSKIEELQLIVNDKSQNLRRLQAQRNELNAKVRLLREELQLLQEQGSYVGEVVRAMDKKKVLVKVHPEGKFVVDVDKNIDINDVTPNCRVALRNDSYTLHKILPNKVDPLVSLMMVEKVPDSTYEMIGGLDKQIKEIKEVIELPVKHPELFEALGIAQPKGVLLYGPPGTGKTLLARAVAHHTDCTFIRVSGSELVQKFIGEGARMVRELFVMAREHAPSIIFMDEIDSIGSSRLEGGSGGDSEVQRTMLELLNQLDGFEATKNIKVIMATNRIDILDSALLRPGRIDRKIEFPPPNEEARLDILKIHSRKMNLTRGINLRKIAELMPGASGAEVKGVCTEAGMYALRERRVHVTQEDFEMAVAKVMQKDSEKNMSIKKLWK
UniProt Q6GMV3: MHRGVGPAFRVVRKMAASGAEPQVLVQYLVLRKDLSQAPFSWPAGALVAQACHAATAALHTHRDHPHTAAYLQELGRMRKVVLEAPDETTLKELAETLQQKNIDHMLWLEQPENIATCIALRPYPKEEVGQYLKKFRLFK
UniProt Q7Z6K3: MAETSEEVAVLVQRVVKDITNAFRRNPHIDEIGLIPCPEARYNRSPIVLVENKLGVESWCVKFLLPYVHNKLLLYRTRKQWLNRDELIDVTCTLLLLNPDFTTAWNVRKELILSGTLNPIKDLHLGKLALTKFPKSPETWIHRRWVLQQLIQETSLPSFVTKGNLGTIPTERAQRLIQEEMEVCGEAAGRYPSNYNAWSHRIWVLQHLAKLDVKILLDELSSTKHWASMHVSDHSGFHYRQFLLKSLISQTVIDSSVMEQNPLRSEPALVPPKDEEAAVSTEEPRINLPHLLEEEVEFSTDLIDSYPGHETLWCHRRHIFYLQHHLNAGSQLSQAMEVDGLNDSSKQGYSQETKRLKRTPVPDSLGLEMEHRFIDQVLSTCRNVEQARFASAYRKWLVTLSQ
UniProt Q96PU8: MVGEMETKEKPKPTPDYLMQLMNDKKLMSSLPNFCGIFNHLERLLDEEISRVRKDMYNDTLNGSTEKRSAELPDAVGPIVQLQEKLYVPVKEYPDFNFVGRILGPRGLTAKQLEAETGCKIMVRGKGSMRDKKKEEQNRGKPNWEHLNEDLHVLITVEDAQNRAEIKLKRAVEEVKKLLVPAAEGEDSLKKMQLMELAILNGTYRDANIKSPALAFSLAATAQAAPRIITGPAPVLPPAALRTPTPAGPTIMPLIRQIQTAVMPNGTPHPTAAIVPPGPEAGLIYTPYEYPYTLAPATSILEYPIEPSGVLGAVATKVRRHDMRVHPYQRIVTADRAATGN
UniProt Q8TBF2: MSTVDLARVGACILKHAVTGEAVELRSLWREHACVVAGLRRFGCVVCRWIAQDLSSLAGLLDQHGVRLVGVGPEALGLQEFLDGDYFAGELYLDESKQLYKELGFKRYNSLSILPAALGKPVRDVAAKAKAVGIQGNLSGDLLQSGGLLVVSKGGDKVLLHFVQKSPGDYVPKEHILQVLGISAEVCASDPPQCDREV
UniProt P25787: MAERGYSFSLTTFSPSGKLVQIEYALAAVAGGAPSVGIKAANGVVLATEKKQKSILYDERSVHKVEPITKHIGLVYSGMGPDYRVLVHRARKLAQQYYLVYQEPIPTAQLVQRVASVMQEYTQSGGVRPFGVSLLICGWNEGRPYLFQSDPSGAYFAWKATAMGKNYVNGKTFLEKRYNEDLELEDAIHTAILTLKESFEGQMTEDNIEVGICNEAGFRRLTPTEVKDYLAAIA
UniProt Q15008: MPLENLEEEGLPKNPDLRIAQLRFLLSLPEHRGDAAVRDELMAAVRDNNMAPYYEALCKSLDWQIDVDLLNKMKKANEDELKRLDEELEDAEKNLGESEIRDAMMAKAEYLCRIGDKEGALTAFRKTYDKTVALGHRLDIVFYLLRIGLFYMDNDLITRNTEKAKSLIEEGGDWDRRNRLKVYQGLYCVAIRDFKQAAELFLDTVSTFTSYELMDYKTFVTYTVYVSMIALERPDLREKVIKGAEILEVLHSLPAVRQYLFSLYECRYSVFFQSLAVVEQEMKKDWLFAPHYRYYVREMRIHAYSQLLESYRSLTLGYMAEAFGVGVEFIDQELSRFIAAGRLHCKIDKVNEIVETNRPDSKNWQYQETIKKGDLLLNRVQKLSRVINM

compound: Cc1cccc(CC(=O)N2CCc3c2ccc(-c2cn(C)c4ncnc(N)c24)c3F)n1; assay: log2 fold change, soluble protein after heating vs DMSO (PISA); higher = thermal stabilisation; K562 cells, 10 uM, 30 min; active = over 0.2 and 3.5 SD of the protein, either way, in both replicates (recomputed)
Procedure, shortened: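 Quantification of soluble protein used TMTpro 16plex LC-MS/MS, with channel sums equalised. Samples were the supernatant after 21,000xg for 90 min of pooled aliquots from K562 cells (2×10^6 cells/mL) treated with 10 μM compound for 30 min, heated for 3 min over 48°C-58°C, and extracted in PBS with 0.5% NP-40 at 4°C. Values, from duplicates, describe thermal stability against control samples on a log2 fold-change scale.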

log2 fold change, inactive:
PUS10 (UniProt Q3MIT2) -0.026
PTPN12 (UniProt Q05209) 0.008
PSMC1 (UniProt P62191) 0.02
PTPMT1 (UniProt Q8WUK0) -0.003
PTMS (UniProt P20962) -0.079
PUM2 (UniProt Q8TB72) -0.054
PWP2 (UniProt Q15269) 0.058
PTER (UniProt Q96BW5) -0.055
PSMD13 (UniProt Q9UNM6) 0.003
QTRT2 isoform 4 (UniProt Q9H974) 0.002
PSMC5 (UniProt P62195) 0.035
PTRHD1 (UniProt Q6GMV3) 0.024
PTDSS2 (UniProt Q9BVG9) -0.012
PTAR1 (UniProt Q7Z6K3) 0.037
QKI (UniProt Q96PU8) 0.058
PSTPIP2 (UniProt Q9H939) -0.034
PSMA1 isoform 2 (UniProt P25786) -0.012
PTK2B (UniProt Q14289) -0.063
PWP1 (UniProt Q13610) 0.033
PRXL2B isoform 3 (UniProt Q8TBF2) -0.068
PTDSS1 (UniProt P48651) 0.092
PSMA2 (UniProt P25787) 0.024
PSMD6 (UniProt Q15008) 0.008

Random excerpt: two entries already listed, in no set order.
log2 fold change, inactive:
QTRT2 isoform 4 (UniProt Q9H974) 0.002
PSMD6 (UniProt Q15008) 0.008
